Laboratory results: paper doi:10.1101/2022.03.04.482956
Read-outs that look alike come from different tables or passages of the source. No constants are given. Whether binding was seen depends on the method and setting. In cells and extracts the contact can be indirect.

Chains of the proteins cited; added tags and fusions are not shown. Lines headed by an entry give the natural chain unless they say otherwise; changes in a name come on top.
UniProt Q86YI8: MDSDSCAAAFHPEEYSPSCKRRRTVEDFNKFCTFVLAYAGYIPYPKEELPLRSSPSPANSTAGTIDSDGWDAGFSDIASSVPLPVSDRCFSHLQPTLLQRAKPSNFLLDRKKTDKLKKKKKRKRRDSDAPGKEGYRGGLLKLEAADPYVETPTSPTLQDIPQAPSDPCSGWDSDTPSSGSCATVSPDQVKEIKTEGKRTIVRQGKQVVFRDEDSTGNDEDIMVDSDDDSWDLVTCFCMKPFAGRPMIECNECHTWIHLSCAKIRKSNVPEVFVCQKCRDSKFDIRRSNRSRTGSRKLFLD
UniProt Q9UQE7: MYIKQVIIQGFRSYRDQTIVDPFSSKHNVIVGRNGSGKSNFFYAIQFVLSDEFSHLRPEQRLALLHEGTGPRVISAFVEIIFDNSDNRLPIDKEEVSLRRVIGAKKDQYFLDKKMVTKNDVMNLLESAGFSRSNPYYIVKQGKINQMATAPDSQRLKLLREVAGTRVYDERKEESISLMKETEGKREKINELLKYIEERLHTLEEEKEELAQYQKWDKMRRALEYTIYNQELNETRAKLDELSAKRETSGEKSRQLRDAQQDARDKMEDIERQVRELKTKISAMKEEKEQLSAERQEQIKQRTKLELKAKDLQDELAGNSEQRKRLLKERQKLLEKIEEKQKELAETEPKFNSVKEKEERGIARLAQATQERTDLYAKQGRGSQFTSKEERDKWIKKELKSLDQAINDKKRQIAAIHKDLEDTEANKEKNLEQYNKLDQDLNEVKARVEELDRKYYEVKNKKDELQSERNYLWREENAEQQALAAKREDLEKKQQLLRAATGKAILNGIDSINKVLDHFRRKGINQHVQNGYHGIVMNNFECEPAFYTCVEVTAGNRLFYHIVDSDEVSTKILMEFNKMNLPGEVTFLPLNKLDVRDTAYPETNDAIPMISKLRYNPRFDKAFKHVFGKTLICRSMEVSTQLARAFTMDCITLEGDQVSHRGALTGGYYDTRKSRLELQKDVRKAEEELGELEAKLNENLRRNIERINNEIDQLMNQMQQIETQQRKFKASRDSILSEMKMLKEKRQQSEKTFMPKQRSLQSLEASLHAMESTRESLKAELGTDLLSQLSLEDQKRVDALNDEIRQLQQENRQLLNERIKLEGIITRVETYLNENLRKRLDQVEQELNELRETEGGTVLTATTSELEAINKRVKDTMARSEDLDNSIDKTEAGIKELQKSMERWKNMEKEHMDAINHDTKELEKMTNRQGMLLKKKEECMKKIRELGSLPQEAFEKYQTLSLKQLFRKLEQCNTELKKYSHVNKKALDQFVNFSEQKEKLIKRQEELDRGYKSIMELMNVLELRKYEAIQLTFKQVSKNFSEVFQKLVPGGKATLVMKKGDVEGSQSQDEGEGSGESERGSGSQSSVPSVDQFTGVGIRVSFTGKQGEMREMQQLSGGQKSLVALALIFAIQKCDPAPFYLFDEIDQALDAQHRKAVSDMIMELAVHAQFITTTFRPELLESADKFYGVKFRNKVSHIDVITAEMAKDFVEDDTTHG

Tests used:
YFP-PHF13 Δ7ΔPHD [1] = biological target: YFP-PHF13 Δ7ΔPHD (UniProt Q86YI8); assay: co-IP
YFP-PHF13 Δ7ΔPHD [2] = biological target: YFP-PHF13 Δ7ΔPHD (UniProt Q86YI8); assay: co-IP; remark: listed apart in the source

binding (YFP-PHF13 Δ7ΔPHD [1]): no binding | binding (YFP-PHF13 Δ7ΔPHD [2]): no binding
Substance: SMC3 (endogenous cohesin subunit) (from UniProt Q9UQE7 1-1217)
